## Library screen at single concentrations

By UniProt entry, the sequences of proteins in these tests, tags left out. Residues count along the entry.
UniProt P9WNZ1, whole entry: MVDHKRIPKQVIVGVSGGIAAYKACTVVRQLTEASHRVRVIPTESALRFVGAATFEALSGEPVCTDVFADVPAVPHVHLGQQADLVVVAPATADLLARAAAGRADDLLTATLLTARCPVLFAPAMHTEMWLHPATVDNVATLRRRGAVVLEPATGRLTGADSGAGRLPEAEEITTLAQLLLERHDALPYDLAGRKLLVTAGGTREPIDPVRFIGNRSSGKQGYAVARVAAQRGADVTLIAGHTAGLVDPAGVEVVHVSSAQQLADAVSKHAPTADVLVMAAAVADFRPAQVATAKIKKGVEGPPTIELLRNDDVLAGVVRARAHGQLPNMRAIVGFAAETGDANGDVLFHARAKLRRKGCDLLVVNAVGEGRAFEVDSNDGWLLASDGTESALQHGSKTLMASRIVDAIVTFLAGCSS
UniProt I6X8D2, whole entry: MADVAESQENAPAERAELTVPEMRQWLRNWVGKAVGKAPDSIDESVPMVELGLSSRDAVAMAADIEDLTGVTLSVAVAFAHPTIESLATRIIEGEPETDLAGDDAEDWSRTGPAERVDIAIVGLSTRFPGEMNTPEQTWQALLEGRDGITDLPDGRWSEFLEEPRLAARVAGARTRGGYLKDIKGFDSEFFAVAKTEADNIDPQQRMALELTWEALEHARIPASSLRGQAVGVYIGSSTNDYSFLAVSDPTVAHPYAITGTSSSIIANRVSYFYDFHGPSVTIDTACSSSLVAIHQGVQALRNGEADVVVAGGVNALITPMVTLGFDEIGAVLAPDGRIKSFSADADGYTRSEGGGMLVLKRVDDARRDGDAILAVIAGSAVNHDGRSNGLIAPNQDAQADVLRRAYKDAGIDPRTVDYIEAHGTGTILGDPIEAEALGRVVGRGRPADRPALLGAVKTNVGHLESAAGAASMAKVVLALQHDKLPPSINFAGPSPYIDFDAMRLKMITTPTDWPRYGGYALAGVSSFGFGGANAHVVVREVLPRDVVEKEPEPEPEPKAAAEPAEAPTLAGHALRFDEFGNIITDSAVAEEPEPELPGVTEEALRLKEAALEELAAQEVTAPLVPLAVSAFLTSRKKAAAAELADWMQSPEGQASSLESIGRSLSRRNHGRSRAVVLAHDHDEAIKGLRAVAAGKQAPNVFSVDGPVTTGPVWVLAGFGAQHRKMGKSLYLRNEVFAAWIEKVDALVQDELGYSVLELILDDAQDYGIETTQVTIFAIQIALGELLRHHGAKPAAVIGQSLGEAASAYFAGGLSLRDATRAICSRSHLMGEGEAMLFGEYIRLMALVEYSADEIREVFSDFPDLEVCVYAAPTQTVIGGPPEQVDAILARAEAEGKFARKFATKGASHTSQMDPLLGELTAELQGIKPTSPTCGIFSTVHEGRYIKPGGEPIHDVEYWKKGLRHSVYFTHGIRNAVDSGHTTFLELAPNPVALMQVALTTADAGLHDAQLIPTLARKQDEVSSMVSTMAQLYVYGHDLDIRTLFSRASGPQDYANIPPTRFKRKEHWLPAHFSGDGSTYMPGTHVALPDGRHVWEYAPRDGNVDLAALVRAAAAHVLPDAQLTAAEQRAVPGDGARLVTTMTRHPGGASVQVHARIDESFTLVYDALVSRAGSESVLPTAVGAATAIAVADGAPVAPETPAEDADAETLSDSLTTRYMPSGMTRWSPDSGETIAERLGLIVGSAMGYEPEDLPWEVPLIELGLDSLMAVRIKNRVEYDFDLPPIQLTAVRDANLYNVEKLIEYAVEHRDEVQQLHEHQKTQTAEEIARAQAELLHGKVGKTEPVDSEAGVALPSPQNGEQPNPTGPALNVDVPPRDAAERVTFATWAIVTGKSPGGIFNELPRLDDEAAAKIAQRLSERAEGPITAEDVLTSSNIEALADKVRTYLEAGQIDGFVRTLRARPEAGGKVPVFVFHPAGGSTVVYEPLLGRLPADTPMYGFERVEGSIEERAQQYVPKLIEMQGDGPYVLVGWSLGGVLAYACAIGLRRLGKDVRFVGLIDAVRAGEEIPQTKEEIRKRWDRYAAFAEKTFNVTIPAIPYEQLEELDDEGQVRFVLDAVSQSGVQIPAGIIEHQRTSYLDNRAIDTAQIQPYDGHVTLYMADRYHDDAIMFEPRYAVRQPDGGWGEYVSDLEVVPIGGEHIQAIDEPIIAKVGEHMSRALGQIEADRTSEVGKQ
UniProt P9WPC5, whole entry: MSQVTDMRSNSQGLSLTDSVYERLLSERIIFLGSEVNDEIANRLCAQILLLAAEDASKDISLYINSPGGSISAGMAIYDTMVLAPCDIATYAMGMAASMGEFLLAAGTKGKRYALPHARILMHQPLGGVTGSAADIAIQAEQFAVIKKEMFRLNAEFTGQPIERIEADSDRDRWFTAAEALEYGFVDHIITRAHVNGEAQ
UniProt P9WPC3, whole entry partner: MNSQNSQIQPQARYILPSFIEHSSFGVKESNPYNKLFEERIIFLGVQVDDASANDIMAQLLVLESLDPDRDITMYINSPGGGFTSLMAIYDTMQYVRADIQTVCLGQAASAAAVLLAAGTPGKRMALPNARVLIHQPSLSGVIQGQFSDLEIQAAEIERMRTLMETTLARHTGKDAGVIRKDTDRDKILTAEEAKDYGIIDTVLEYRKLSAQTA
UniProt A4I591, 1-473: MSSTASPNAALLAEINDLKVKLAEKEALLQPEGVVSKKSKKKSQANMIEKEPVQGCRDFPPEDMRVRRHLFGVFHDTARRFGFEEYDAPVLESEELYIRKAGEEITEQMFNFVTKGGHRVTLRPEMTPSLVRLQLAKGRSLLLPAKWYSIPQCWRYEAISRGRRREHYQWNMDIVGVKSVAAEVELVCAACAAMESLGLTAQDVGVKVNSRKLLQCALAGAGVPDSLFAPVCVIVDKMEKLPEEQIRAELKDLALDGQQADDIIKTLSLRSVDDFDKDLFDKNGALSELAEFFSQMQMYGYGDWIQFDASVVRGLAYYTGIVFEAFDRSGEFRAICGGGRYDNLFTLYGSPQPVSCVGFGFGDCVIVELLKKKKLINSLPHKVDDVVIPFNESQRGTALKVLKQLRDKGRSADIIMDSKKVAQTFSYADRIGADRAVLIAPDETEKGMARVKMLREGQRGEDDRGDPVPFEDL
UniProt P9WFT3, whole entry: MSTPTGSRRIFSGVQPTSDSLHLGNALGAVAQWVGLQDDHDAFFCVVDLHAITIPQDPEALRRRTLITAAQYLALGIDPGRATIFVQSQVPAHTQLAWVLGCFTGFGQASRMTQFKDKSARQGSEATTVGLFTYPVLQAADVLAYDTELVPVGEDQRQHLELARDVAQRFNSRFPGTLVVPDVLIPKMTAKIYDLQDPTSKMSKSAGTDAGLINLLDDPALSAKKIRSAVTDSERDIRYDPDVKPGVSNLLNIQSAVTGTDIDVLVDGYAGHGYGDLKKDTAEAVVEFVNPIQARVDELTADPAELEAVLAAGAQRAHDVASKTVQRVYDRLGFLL

The values are deposited in ChEMBL (CHEMBL3988442, “University of Dundee, Small-Polar-MMV Screening Library” (2021)).

Results are given as percent effect.
How 0% and 100% were set is not recorded. Most values in the screen are low, and negative values occur.
Compounds were drawn at random from those tested, without regard to their results.
Two or more numbers in one place are separate tests of the same structure; such repeats can differ widely.
A dash means the value is not listed here; it may have been measured.

A: 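Coenzyme A biosynthesis protein CoaBC, Mycobacterium tuberculosis (UniProt P9WNZ1). Enzyme assay of CoaBC with a phosphate dye (Biomol Green) read at 650 nm. Tested at 30 µM. Direction is inferred from only a few compounds that gave an IC50; most scored high, so higher reads as stronger inhibition. Most strong results did not repeat in a second test. About 67,000 compounds were tested under these conditions; 0.06% (about 40) showed 50% or more at least once.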
B: 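Enzyme assay of the thioesterase domain of polyketide synthase 13; the read-out is not stated. Target: Polyketide synthase Pks13, Mycobacterium tuberculosis (UniProt I6X8D2). Tested at 30 µM. The record gives no direction; the compounds picked for IC50 retests had high values, so higher reads as stronger inhibition. Size under these conditions: about 67,000 compounds, about 300 of them at 50% or above in at least one test.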
C: 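ClpP1P2, Mycobacterium tuberculosis (UniProt P9WPC5 and UniProt P9WPC3). Protease assay of ClpP1P2, read by the AMC dye that it sets free. Concentration: 50 µM. Direction is inferred from only a few compounds that gave an IC50; most scored high, so higher reads as stronger inhibition. Most other retested compounds had strongly negative values. Size under these conditions: about 69,000 compounds, about 10 of them at 50% or above in at least one test.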
D: 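Enzyme assay of histidyl-tRNA synthetase; the read-out is not stated. Target: Histidine-tRNA ligase, Leishmania infantum (UniProt A4I591). Compounds at 30 µM. Higher reads as stronger inhibition (inferred: compounds with an IC50 in retests scored well above the rest). The assay is labelled LdHisRS but filed under L. infantum. About 69,000 compounds were tested under these conditions; 0.6% (about 410) showed 50% or more at least once.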
E: 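Enzyme assay of tryptophanyl-tRNA synthetase; the read-out is not stated. Target: Tryptophan-tRNA ligase, Mycobacterium tuberculosis (UniProt P9WFT3). Compounds at 10 µM. Higher most likely means stronger inhibition; the record gives no direction and few retests gave an IC50. Of about 65,000 compounds tested this way, about 64 (0.098%) reached 50% or more in at least one test.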

structure	A	B	C	D	E
Cc1ccc(NC(=O)c2coc(C)n2)c(C)c1	-1.456	-31.26	-14.27	0	-7.059
COc1cc(N2C[C@H]3CCN(CCN4CCCC4)C[C@H]3C2)ncn1	-	-22.25	-3.519	13.79	1.187
Cc1nccn1CCN(C)c1nc(-c2ccc(Cl)cc2)nc2c1CNC2	1.22	-6.954	-19.54	17.6	2.558
CC(Oc1ccccc1C(F)(F)F)C(=O)NCCC(=O)N(C)C (centres unmarked)	6.004	-4.717	-4.938	19.23	0
COc1cc(C)sc1C(=O)N1CCCC(n2nc(C)nc2C)C1 (centres unmarked)	2.887	-22.44	-7.354	13.56	9.398
Cc1cc(C)nc(N2CC=C[C@H]2C(=O)NCc2ccc3c(c2)OCO3)n1	-1.9	9.202	-6.978	4.225	0.3397
Cc1nn(C2CCS(=O)(=O)C2)c(O)c1CCc1ccccc1 (centres unmarked)	-2.525	-9.959	2.273	10.53	1.331
CCCN(Cc1ccccc1C)C(CC)CO (centres unmarked)	22.27 & 10.58	-24.32	-2.785	8.219	-1.487
CN(C)c1ccccc1C(=O)N1C[C@@H](CN2CCCCC2)[C@@H](CO)C1	-13.6	-15.73	-11.27	26.67	1.42
O=S(=O)(c1ccccc1F)N1CCCC(c2nccs2)C1 (centres unmarked)	-0.2433	-12.11	-0.9013	-5.263	-3.072
CC(C)c1ncc(CN2CCC(c3n[nH]cc3C(=O)N(C)C)C2)cn1 (centres unmarked)	5.226	2.789	-3.296	9.859	0.8832
CC(CC(=O)N1CCC(c2nnc3n2CCC3)CC1)n1cccc1 (centres unmarked)	10.63	-9.032	-5.839	15.62	5.248
CCN(CC)C(=O)c1nnsc1-c1ccc(Cl)cc1	-32.81	-23.84	-11.62	14.61	-2.832
COc1ccc(-c2n[nH]cc2C2SCC(=O)Nc3[nH]ncc32)cc1 (centres unmarked)	2.564	-169.5	4.161	14.29	1.801
O=S(=O)(c1cc(F)ccc1F)n1cc(Cl)cn1	0.7282	-3.647	-9.537	-2.381	0.8639
CNc1cc2c(nn1)CCN(C(=O)c1cccc3c1OCCO3)C2	-83.39	-8.736	-6.436	9.615	-5.511
Cc1nc(CNC(C)c2cccc(S(=O)(=O)N(C)C)c2)no1 (centres unmarked)	-0.6329	-	-3.827	1.299	-2.726
N#Cc1cccnc1N1CCCN(CC(=O)N2CCNC(=O)C2)CC1	4.435	-9.275	-1.421	12.28	-3.269
CN(CC1(O)CCCCC1)C1CCCN(Cc2noc(C3CC3)n2)C1 (centres unmarked)	5.175	-15.42	14.31	13.64	2.437
Cc1nc(C(=O)N2CCCC(c3ccc4sc(N)nc4n3)C2)co1 (centres unmarked)	-2.421	3.012	9.275	8.247	-
c1csc(-c2noc(C3CCCNC3)n2)c1 (centres unmarked)	-3.767	4.591	-6.693	19.57	-0.4823
O=C(c1ccoc1)N1CCOC2(COCCN(c3ncccn3)C2)C1 (centres unmarked)	5.315	-41.74	-5.969	17	3.715
OCCn1nccc1C1CCN(CCOc2cccc(F)c2)CC1	3.52	-14.67	-4.012	16.67	-5.127
CCCN1C[C@H]2CC[C@@H]1CN(Cc1cccc(O)c1)C2	-33.64	-13.3	4.791	32.89	1.954
COc1ccc(CNC(=O)N2CCN(C)[C@@H]3CS(=O)(=O)C[C@@H]32)cc1	7.042	-23.5	-3.981	12.82	-6.983
O=c1c(NCCNCCO)c(N2CCN(c3ccccc3)CC2)c1=O	3.544	4.339	-1.544	13.16	2.931
O=C(Nc1ccc2c(c1)OCO2)Nc1cnn(C2CCOCC2)c1	-5.471	-	-8.699	26.83	1.188
COc1ccc(SC(C)C(=O)N2CCC(C(=O)N3CCCC3)CC2)cc1 (centres unmarked)	0.9677	-23.78	-4.28	9.211	-1.005
CN1CCN(Cc2cnc3n2CCN(Cc2cccs2)C3)CC1	11.31	-22.58	-2.243	15.04	9.852
Cc1ccc2c(c1)C(=O)NCC1(CCN(C(=O)c3scnc3C)CC1)O2	8.798	-1.931	5.068	22	-
CC1CCN(CCNC(=O)C2CCN(C(=O)C(C)(C)C)CC2)CC1	1.282	-32.88	-5.134	28.77	-4.674
Cc1nnc(NC(=O)NC2CCOc3ccccc32)s1 (centres unmarked)	5.376	-6.566	3.601	17.14	-0.4112
CC(C)CNC(=O)c1cccc(Oc2ccc3nncn3n2)c1	-1.928	-0.4532	-10.37	5.495	-3.948
N#CCCN(C(=O)CCc1cccnc1)c1ccc2c(c1)OCCO2	-1.942	-3.849	4.55	11.9	0.432

2 of the entries, repeated:

| structure | A | B | C | D | E |
|---|---|---|---|---|---|
| `O=C(c1ccoc1)N1CCOC2(COCCN(c3ncccn3)C2)C1` (centres unmarked) | 5.315 | -41.74 | -5.969 | 17 | 3.715 |
| `Cc1nn(C2CCS(=O)(=O)C2)c(O)c1CCc1ccccc1` (centres unmarked) | -2.525 | -9.959 | 2.273 | 10.53 | 1.331 |